Reference: article PMC7910451
These are yes or no findings as the source states them, for the method shown. In cells and extracts the contact can be indirect. Some results given as binding are weak or reduced against the parent protein; the word gives no strength. Where a sequence is shown, tags or fusion partners need not be part of it.

Molecular target: FLAG-tagged Beclin1, Q14457
Assay: co-IP; HK-2 cells with HA-SIRT1 and FLAG-Beclin1, with LPS stimulation; anti-FLAG, protein A + G agarose beads, overnight at 4 °C; blot anti-HA
Conditions: remark: other sources report otherwise

binding: binds
B1: HA-tagged SIRT1, Q96EB6 1-747 (enzyme)
chain: MADEAALALQPGGSPSAAGADREAASSPAGEPLRKRPRRDGPGLERSPGEPGGAAPEREVPAAARGCPGAAAAALWREAEAEAAAAGGEQEAQATAAAGEGDNGPGLQGPSREPPLADNLYDEDDDDEGEEEEEAAAAAIGYRDNLLFGDEIITNGFHSCESDEEDRASHASSSDWTPRPRIGPYTFVQQHLMIGTDPRTILKDLLPETIPPPELDDMTLWQIVINILSEPPKRKKRKDINTIEDAVKLLQECKKIIVLTGAGVSVSCGIPDFRSRDGIYARLAVDFPDLPDPQAMFDIEYFRKDPRPFFKFAKEIYPGQFQPSLCHKFIALSDKEGKLLRNYTQNIDTLEQVAGIQRIIQCHGSFATASCLICKYKVDCEAVRGDIFNQVVPRCPRCPADEPLAIMKPEIVFFGENLPEQFHRAMKYDKDEVDLLIVIGSSLKVRPVALIPSSIPHEVPQILINREPLPHLHFDVELLGDCDVIINELCHRLGGEYAKLCCNPVKLSEITEKPPRTQKELAYLSELPPTPLHVSEDSSSPERTSPPDSSVIVTLLDQAAKSNDDLDVSESKGCMEEKPQEVQTSRNVESIAEQMENPDLKNVGSSTGEKNERTSVAGTVRKCWPNRVAKEQISRRLDGNQYLFLPPNRYIFHGAEVYSDSEDDVLSSSSCGSNSDSGTCQSPSLEEPMEDESEIEEFYNGLEDEPDVPERAGGAGFGTDGDDQEAINEAISVKQEVTDMNYPSNKS
